Values quoted from earlier work as cited in patent US10543184B2, “Method to treat functional somatic syndromes with combination of aciclovir and celecoxib” (INNOVATIVE MED CONCEPTS, LLC, priority 2012, dated 2020).
At least one compound was matched to its structure with a doubt left.

Tested on: herpes viral reactivation in the nervous system of mice
Conditions: Gebhardt et al. (2005)

## Cc1ccc(-c2cc(C(F)(F)F)nn2-c2ccc(S(N)(=O)=O)cc2)cc1 [celecoxib]
  Effect on hyperthermic stress-induced herpes viral reactivation: can suppress hyperthermic stress-induced herpes viral reactivation
